The campaign covered roughly 140,000 compounds. About 4,300 (3.1%) were called active. Inconclusive means that the source gave no clear call. Such entries were picked first, then a sample of the others.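 How the source made its calls: active means readout at or below -70, meaning at least 70% loss of cells showing the perinucleolar compartment, a nuclear body marking cancer cells; inconclusive means readout between -30 and a set limit; inactive means the rest.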
Experiment: High Content Assay for Compounds that inhibit the Assembly of the Perinucleolar Compartment;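 further: plate controls were DMSO wells for no effect and camptothecin positive control wells for full effect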
Details: PC3M PTB-GFP, PNC prevalence imaging, 16 h; at 10 µM; active compounds read low
In short: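 PC3M cells stably expressing PTB-GFP, 750–1000 cells/well, treated 16 h at 37 °C with compound (23 nl of library stock), in duplicate. After paraformaldehyde fixation and Hoechst stain, imaged at 20x; PNC prevalence scored by image analysis.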

Structure (SMILES) | activity change (PNC), negative = inhibition
CCOCCCn1c(=S)[nH]c2cc(C(=O)N3CCN(C)CC3)ccc2c1=O | inconclusive: -40.7%
CCN(Cc1ccccc1)C(=O)c1ccc(CNS(=O)(=O)c2ccc(C)cc2)cc1 | inconclusive: -45.6%
COc1ccc(N(CC(=O)NCCC2=CCCCC2)S(C)(=O)=O)cc1 | inactive: 29%
O=S(=O)(Nc1ccccn1)c1cnc(Cl)c(Br)c1 | inconclusive: -39.3%
O=C(c1ccco1)N1CCN(c2nc3ccccc3n3nnnc23)CC1 | inconclusive: -47.2%
Cc1cccc(NC(=O)CCSc2nnc(Cc3ccccc3)o2)c1 | inconclusive: -59.7%
O=C(CCN1C(=O)c2ccccc2C1=O)NC1=NCCS1 | inconclusive: -70.4%
CC(Cc1cccs1)NC(=O)Nc1ccc(Cl)c(Cl)c1 (stereo not drawn) | inconclusive: -40.7%
COc1ccc(NS(=O)(=O)c2ccc(NS(=O)(=O)c3ccc(C)cc3)cc2)nn1 | inactive: 18.9%
O=C(NCc1ccccc1)/C(=N\O)c1ccccc1 | inconclusive: -31.3%
O=C(NCc1cccs1)C1CCC(CNS(=O)(=O)c2cccc3nsnc23)CC1 (stereo not drawn) | inconclusive: -46.1%
COc1ccc(N(C(=O)Cn2cnc3ccccc32)C(C(=O)NC2CCCCC2)c2ccccc2)cc1 (stereo not drawn) | inconclusive: -30.2%
Cc1c(C(=O)NC(=S)NCC(C)C)oc2ccccc12 | inconclusive: -31.3%
O=C(Nc1nnc(-c2cccs2)o1)c1cccc(Oc2ccccc2)c1 | inconclusive: -56.1%
CCC(C)NC(=O)C1CCN(S(=O)(=O)N2CCCC2)CC1 (stereo not drawn) | inconclusive: -34.1%
CCn1c(SCC(=O)NCC(=O)Nc2ccc(F)cc2)nnc1-c1cccs1 | active: -86.2%
COc1ccc(C(C)=O)c2c(O)cccc12 | inconclusive: -37.5%
Cc1cccc(-n2ncc3c(N4CC(C)CC(C)C4)ncnc32)c1 (stereo not drawn) | inconclusive: -61.5%
COC(=O)CSc1nc(C)cc(C(F)(F)F)c1C#N | inactive: 74.4%
COc1ccc(OC)c(C2CC(=O)N3CN(c4ccccc4F)CSC3=C2C#N)c1 (stereo not drawn) | inactive: 7.2%
CN(C)S(=O)(=O)c1ccc(N2CCCC2)c(C(=O)NCc2cccc(C(F)(F)F)c2)c1 | inconclusive: -46.6%
COC(=O)C1=NN(C(=O)c2ccccc2)C(C)(O)C1 (stereo not drawn) | inconclusive: -45.7%

Pulled by structure from the list above, five records:
Structure (SMILES) | activity change (PNC), negative = inhibition
CC(Cc1cccs1)NC(=O)Nc1ccc(Cl)c(Cl)c1 (stereo not drawn) | inconclusive: -40.7%
O=C(c1ccco1)N1CCN(c2nc3ccccc3n3nnnc23)CC1 | inconclusive: -47.2%
COc1ccc(OC)c(C2CC(=O)N3CN(c4ccccc4F)CSC3=C2C#N)c1 (stereo not drawn) | inactive: 7.2%
COc1ccc(NS(=O)(=O)c2ccc(NS(=O)(=O)c3ccc(C)cc3)cc2)nn1 | inactive: 18.9%
Cc1c(C(=O)NC(=S)NCC(C)C)oc2ccccc12 | inconclusive: -31.3%

More records follow.

Structure (SMILES) | activity change (PNC), negative = inhibition
Cc1ccc2c(c1)N(S(=O)(=O)c1ccc(F)cc1)C(C(C)(C)C)CO2 (stereo not drawn) | inactive: -26.5%
Cc1nc([N+](=O)[O-])c(N2CCN(Cc3ccccc3)CC2)n1Cc1ccccc1 | inconclusive: -34.4%
Cc1ccc(S(=O)(=O)c2nc(-c3ccco3)oc2SCC(=O)NCC2CCCO2)cc1 (stereo not drawn) | inconclusive: -33.4%
CCN1C(=O)S/C(=C/c2ccc(Sc3nc4ccccc4[nH]3)o2)C1=O | inconclusive: -30.3%
O=C(Nc1ccc(-c2nc3ccccc3c(=O)o2)cc1)c1ccco1 | inconclusive: -48.7%
CCOc1ccccc1N1CCN(C(=O)CCCc2nc3ccccc3s2)CC1 | inconclusive: -40.8%
CC1CCCCC1NC(=O)C1CCN(S(=O)(=O)N2CCOCC2)CC1 (stereo not drawn) | inconclusive: -49.4%
COc1ccccc1NC(=O)c1ccc(-n2cccn2)nc1 | inactive: 13.3%
CCOC(=O)/C(=C/c1ccccc1)NC(=O)c1ccco1 | active: -81.4%
CN(C)c1ccc(/C=N/NC(=O)c2ccc(CN3C(=O)c4cccc5cccc3c45)cc2)cc1 | inconclusive: -65%
Cc1ccc(S(=O)(=O)NCCCCCC(=O)Nc2ccccn2)cc1 | inactive: 16.1%
Cc1cc(=O)n2[nH]c(N)c(N=Nc3ccccc3)c2n1 | inconclusive: -48.2%
O=C(Nc1nnc(C2CC2)s1)c1ccncc1 | inactive: 53.2%
N#CCCCSc1nnnn1-c1cccc(Cl)c1 | inconclusive: -68.7%
CC(C)CNC(=O)c1nc(-c2ccccc2)n(-c2ccccc2)n1 | inconclusive: -30.6%
O=C(Cn1nc(Cc2cccnc2)c2ccccc2c1=O)NCCCN1CCCC1=O | inconclusive: -49.7%
COC(=O)c1cc(C(=O)OC)n(Cc2ccc(Cl)cc2Cl)n1 | inconclusive: -49.8%
CCOC(=O)C1=C(CSc2nc(C)ccc2C#N)OC(N)=C(C#N)C1c1cccc(OC)c1OC (stereo not drawn) | inconclusive: -37.2%
Cc1ccc(N=Cc2c(O)n(-c3nccs3)c(=O)c3ccccc23)cc1 | inconclusive: -34.8%
COc1cc(NC(=O)CN(C)Cc2ccc(OC(F)F)cc2)c(C)cc1[N+](=O)[O-] | inconclusive: -41.7%
CC(C)(C)NC[C@H](O)COc1nsnc1N1CCOCC1 | inconclusive: -46%
Cc1ccc(Cl)cc1N1CCN(C(=O)CSc2nnc3n2C(C)(C)Cc2ccccc2-3)CC1 | inactive: -21.5%

Structure (SMILES) | activity change (PNC), negative = inhibition
CCOC(=O)c1cnc2sc3c(n2c1=O)CCCC3 | inconclusive: -69.6%
Cc1cccc(-n2c(C)nc3cc(C(=O)NCc4ccc5c(c4)OCO5)ccc32)c1 | inactive: 84.7%
Cc1nn(-c2nc3ccccc3n2Cc2ccccc2)c2c1C(=O)CC(C)(C)C2 | inconclusive: -32.2%
O=C(c1ccco1)N(c1ccccn1)c1ccccn1 | inconclusive: -65.5%
CCNc1nc(SCCOc2ccccc2)nc(N(C)C)n1 | inconclusive: -48.8%
CSc1nsc(NC(=O)Cc2ccccc2)n1 | inconclusive: -64.3%
O=C(Nc1cc(Cl)ccn1)C1CCN(S(=O)(=O)c2cccs2)CC1 | inactive: -14.4%
CCCCCCNC(=O)C(C#N)c1nc2ccccc2nc1N1CCOCC1 (stereo not drawn) | inconclusive: -32.6%
O=C(NCCN1CCN(c2ccccc2)CC1)c1ccc(NC(=O)C2CCCO2)cc1 (stereo not drawn) | inconclusive: -33.5%
CNS(=O)(=O)c1ccc(OC)c(-c2nnc3c4ccccc4c(C)nn23)c1 | inconclusive: -67.8%
CCOC(=O)C1=C(CC)NC2=C(C(=O)CCC2)C1c1ccc(OC)c(OC)c1 (stereo not drawn) | inconclusive: -46.3%
CN1/C(=C\C=Nc2cc(S(=O)(=O)N3CCOCC3)ccc2N2CCOCC2)C(C)(C)c2ccccc21 | inconclusive: -30.8%
COCCCNC(=O)c1ccc(N(C)S(=O)(=O)c2ccc(OC)cc2)cc1 | inconclusive: -46.6%
O=C(NCc1ccc2c(c1)OCO2)c1ccc(CN2CCOCC2)cc1 | inconclusive: -75.3%
COC(=O)c1ccc(NC(=O)COc2ccc(S(=O)(=O)N3CCCCC3)cc2)cc1 | inconclusive: -42.1%
CC(=O)c1cccc(NC(=O)C23CC4CC(C2)CC(n2cncn2)(C4)C3)c1 | inconclusive: -73%
Cn1c(=O)c2c(nc(SCC(=O)NCc3ccc4c(c3)OCO4)n2Cc2ccc(Cl)cc2)n(C)c1=O | active: -100%
Cc1ccc(C2C=C(c3ccc4c(c3)OCO4)Nc3ncnn32)cc1 (stereo not drawn) | inactive: 76.9%
Cc1ccc(CNC(=O)COC(=O)[C@@H]2CC(O)CN2S(=O)(=O)c2ccc3c(c2)OCCO3)cc1 (stereo partly drawn) | inconclusive: -74.5%
O=C(COc1nc2ccccc2nc1N1CCOCC1)N1CCc2ccccc21 | inconclusive: -38.9%
Cn1c(=O)c2cnc(N3CCOCC3)nc2n(C)c1=O | inactive: -13.6%
CN(C)S(=O)(=O)c1ccc2nc(NC(=O)c3cccnc3)sc2c1 | inconclusive: -54.5%

Structure (SMILES) | activity change (PNC), negative = inhibition
O=C(NCc1cccs1)C1CCN(S(=O)(=O)c2ccc3c(c2)OCCO3)CC1 | inconclusive: -56.7%
COc1ccc(Cn2c(CCCO)nc3ccccc32)cc1OC | inconclusive: -36.2%
c1ccc(-n2nnnc2Oc2cccc3cccnc23)cc1 | inactive: -8.26%
Cc1ccc(-c2c(C)sc(=NC(=O)c3ccco3)n2C)cc1 | inconclusive: -40.5%
CCOC(=O)c1c(NC(=O)CSC2=NN3CCCC(=O)N=C3S2)sc2c1CCCCC2 | inactive: 17.9%
COc1ccc(C2C(C(=O)N3CCCC3)c3cc(OC)c(OC)cc3C(=O)N2C)cc1OC (stereo not drawn) | inactive: -25.7%
Cc1cc(C)cc(NC(=O)c2nnn(Cc3cc(C)ccc3C)c2N)c1 | inactive: -4.62%
CC(/C=N/N1CCN(c2ccc(C)cc2)CC1)=C\c1ccccc1 | inconclusive: -39.3%
CS(=O)(=O)N(CC(=O)Nc1ccccc1C(=O)N1CCOCC1)c1ccccc1 | inconclusive: -68.8%
O=c1c2ccccc2sn1-c1cc(S(=O)(=O)N2CCOCC2)ccc1N1CCCC1 | active: -108%
Clc1ccc(N2COC3c4cccc5cccc(c45)C32)cc1 (stereo not drawn) | active: -100%
O=C(/C=C/c1ccco1)Nc1ccc(Oc2ccccc2)cc1 | inconclusive: -48.9%
O=c1cc(-c2ccccc2)nc2nc(CCc3ccccc3)[nH]n12 | active: -107%
COc1cccc(NC(=O)CN(C)S(=O)(=O)c2ccc(C)cc2)c1 | inactive: -3.49%
O=C(/C=C/c1ccc(F)cc1)NCc1ccco1 | inactive: 11.2%
COc1ccccc1N1CCN(S(=O)(=O)c2ccccc2F)CC1 | inconclusive: -51%
Nc1nc(SCC(=O)Nc2cc(-c3ccccc3)nn2-c2ccccc2)n[nH]1 | inconclusive: -37.2%
O=C(Nc1cccc(F)c1)c1cc(S(=O)(=O)NCCC2=CCCCC2)ccc1F | inconclusive: -43.6%
CCc1cc(=O)oc2cc3occ(C)c3cc12 | inconclusive: -70.3%
Clc1ccc2nc(C3CCN(Cc4ccccc4)CC3)[nH]c2c1 | inconclusive: -43.1%
CCCCOC(=O)C1=C(C)NC2=C(C(=O)CCC2)C1c1cc(OC)ccc1OC (stereo not drawn) | inconclusive: -48%
CCn1c(SCC(=O)OC(C)C)nnc1-c1cccc(Cl)c1 | inconclusive: -38%
